Test results: PubChem BioAssay AID328 (DTP/NCI, 2004)
The list does not hold the whole screen: it gathers tests that were run many times, whatever their T/C, doses with no T/C, and many T/C values between a quarter and a half above the control. Other doses and runs of a compound stand elsewhere. T/C is the treated group as % of the vehicle group. Some entries give survivors of the animals treated and no T/C: the source holds a T/C of zero for them, seemingly a mark for toxic or unscored doses. Some doses without a T/C left all or most animals alive at the check, yet need not have been tolerated: the source hardly ever lists a survival T/C far under the control, and the zero likely stands for such cases as well. Counts of survivors are from the toxicity check (mostly the fifth day) where no day follows; animals may have died later. Schedule codes are those of the source, read here as Q, the interval in days (D) or hours (H), X, the number of doses. Marks such as (2×) say how often a value occurs here. For survival time, the PubChem record calls one and a half times the control and up active, and a quarter to a half above the control has no call in these data; cut-offs in other NCI protocols can differ. Some doses were run more than once; their values stand side by side, smallest first. Some T/C values carry the count of animals alive at the toxicity check (mostly the fifth day); without a count, all were alive then.

System: BDF1 mice, P388 leukemia ip, median survival T/C
Test: NCI In Vivo Anticancer Drug Screen. Data for tumor model P388 Leukemia (intraperitoneal) in B6D2F1 (BDF1) mice
Conditions: T/C endpoint: median survival time, higher T/C = longer survival
Summary of the method: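 Read-out is survival of treated animals expressed relative to the vehicle group, as a T/C ratio.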

[1] = dose: 100.0 mg/kg/injection, schedule: Q04DX002 (ip), vehicle: Klucel (hydroxypropylcellulose) (HPC)
[2] = dose: 400.0 mg/kg/injection, schedule: Q04DX002 (ip), vehicle: Klucel (hydroxypropylcellulose) (HPC)
[3] = dose: 12.5 mg/kg/injection, schedule: Q01DX009 (ip), vehicle: water
[4] = dose: 50.0 mg/kg/injection, schedule: Q01DX009 (ip), vehicle: water
[5] = dose: 50.0 mg/kg/injection, schedule: Q01DX009 (ip), vehicle: saline with Tween-80
[6] = dose: 200.0 mg/kg/injection, schedule: Q01DX009 (ip), vehicle: Klucel (hydroxypropylcellulose) (HPC)
[7] = dose: 400.0 mg/kg/injection, schedule: Q01DX009 (ip), vehicle: saline
[8] = dose: 50.0 mg/kg/injection, schedule: Q01DX009 (ip), vehicle: Klucel (hydroxypropylcellulose) (HPC)
[9] = dose: 200.0 mg/kg/injection, schedule: Q01DX009 (ip), vehicle: saline with Tween-80

`COc1cc2c(cc1OC)C(OC)N(C)c1c-2ccc2cc3c(cc12)OCO3` (stereo unspecified) was tested, and the survivor count (dose: 0.59 mg/kg/injection, schedule: Q01DX009 (ip), vehicle: saline with Tween-80) was 2 of 6 (2×), the T/C (dose: 0.88 mg/kg/injection, schedule: Q01DX009 (ip), vehicle: saline with Tween-80) was 129 % of control (2×) and the T/C (dose: 1.33 mg/kg/injection, schedule: Q01DX009 (ip), vehicle: saline with Tween-80) was 125 % of control (2×). The T/C (dose: 1.6 mg/kg/injection, schedule: Q01DX009 (ip), vehicle: water) was 136 % of control, the T/C (dose: 2.0 mg/kg/injection, schedule: Q01DX009 (ip), vehicle: saline with Tween-80) was 127 % of control (2×) and the T/C (dose: 2.2 mg/kg/injection, schedule: Q04DX003 (ip), vehicle: saline with Tween-80) was 131 % of control (2×). For the same molecule, the T/C (dose: 3.3 mg/kg/injection, schedule: Q04DX003 (ip), vehicle: saline with Tween-80) was 136 % of control (2×), the T/C (dose: 4.4 mg/kg/injection, schedule: Q04DX003 (ip), vehicle: other) was 145 % of control (2×) and the T/C (dose: 6.6 mg/kg/injection, schedule: Q04DX003 (ip), vehicle: other) was 145 % of control (2×). The survivor count (dose: 20.0 mg/kg/injection, schedule: Q01DX009 (ip), vehicle: saline with Tween-80) was 6 of 6, the T/C (dose: 34.0 mg/kg/injection, schedule: Q01DX009 (ip), vehicle: saline with Tween-80) was 145 % of control and the T/C (dose: 100.0 mg/kg/injection, schedule: Q01DX009 (ip), vehicle: Klucel (hydroxypropylcellulose) (HPC)) was 130 % of control [4 of 6 alive] (2×). For the same molecule, the T/C [1] was 139 % of control, the survivor count (dose: 160.0 mg/kg/injection, schedule: Q04DX003 (ip), vehicle: saline) was 6 of 6 and the survivor count (dose: 175.0 mg/kg/injection, schedule: Q01DX009 (ip), vehicle: Klucel (hydroxypropylcellulose) (HPC)) was 5 of 6 (2×). For the same molecule, the survivor count (dose: 240.0 mg/kg/injection, schedule: Q01DX009 (ip), vehicle: saline with Tween-80) was 4 of 6, the survivor count (dose: 350.0 mg/kg/injection, schedule: Q01DX009 (ip), vehicle: Klucel (hydroxypropylcellulose) (HPC)) was 4 of 6 (2×) and the T/C [2] was 146 % of control.

`CCCCCCCCCCNC1CC(OC2CC(O)(C(C)=O)Cc3c(O)c4c(c(O)c32)C(=O)c2c(OC)cccc2C4=O)OC(C)C1O` (stereo unspecified) was tested, and the survivor count [3] was 3 of 3, the survivor count (dose: 25.0 mg/kg/injection, schedule: Q01DX009 (ip), vehicle: water) was 1 of 3 and the survivor count [4] was 0 of 3.

In the case of `CCCOn1nnc2cc(Cl)ccc21`, the survivor count [5] is reported as 5 of 6.

For `N#C/C(=C/c1ccccc1)CBr`, the survivor count (dose: 100.0 mg/kg/injection, schedule: Q01DX001 (ip), vehicle: saline with Tween-80) was 2 of 6.

For `Oc1ccccc1OB(Oc1ccccc1O)N(CCCl)CCCl`, the T/C (dose: 12.0 mg/kg/injection, schedule: Q01DX009 (ip), vehicle: Klucel (hydroxypropylcellulose) (HPC)) was 131 % of control, the T/C (dose: 37.5 mg/kg/injection, schedule: Q04DX003 (ip), vehicle: saline) was 145 % of control and the survivor count (dose: 56.25 mg/kg/injection, schedule: Q01DX009 (ip), vehicle: Klucel (hydroxypropylcellulose) (HPC)) was 6 of 6. The survivor count (dose: 112.5 mg/kg/injection, schedule: Q01DX009 (ip), vehicle: Klucel (hydroxypropylcellulose) (HPC)) was 6 of 6 and the survivor count (dose: 150.0 mg/kg/injection, schedule: Q04DX003 (ip), vehicle: saline) was 5 of 6.

`N#CSCCSC#N` was tested, and the survivor count [1] was 0 of 6, the survivor count (dose: 200.0 mg/kg/injection, schedule: Q04DX002 (ip), vehicle: Klucel (hydroxypropylcellulose) (HPC)) was 0 of 6 and the survivor count [2] was 0 of 6.

`CCN1c2ccccc2C(Cl)(c2ccc(N(C)C)cc2)c2ccccc21` was tested, and the T/C (dose: 15.0 mg/kg/injection, schedule: Q01DX009 (ip), vehicle: saline) was 131 % of control.

In the case of `CC1(c2cccc3ccccc23)NC(=O)c2ccccc2N1` (stereo unspecified), the T/C [6] is reported as 130 % of control.

For `C[C@]12CCC(=O)C=C1CC[C@H]1[C@@H]3C[C@@H](O)[C@](O)(C(=O)CO)[C@@]3(C)C[C@H](O)[C@@]12F`, the survivor count [7] was 6 of 6.

With `COc1cccc2c1C(=O)c1c(O)c3c(c(O)c1C2=O)C[C@@](O)(/C=N\O)C[C@@H]3OC1CC(N)C(O)C(C)O1` (stereo partly specified) the T/C (dose: 12.5 mg/kg/injection, schedule: Q04DX003 (ip), vehicle: water) was 128 % of control, the T/C (dose: 25.0 mg/kg/injection, schedule: Q04DX003 (ip), vehicle: water) was 138 % of control and the T/C (dose: 50.0 mg/kg/injection, schedule: Q04DX003 (ip), vehicle: water) was 147 % of control. The T/C (dose: 100.0 mg/kg/injection, schedule: Q04DX003 (ip), vehicle: water) was 147 % of control [2 of 3 alive] and the survivor count (dose: 200.0 mg/kg/injection, schedule: Q04DX003 (ip), vehicle: water) was 1 of 3.

`CCOC(=O)C(I)CC` (stereo unspecified) was tested, and the survivor count (dose: 400.0 mg/kg/injection, schedule: Q01DX009 (ip), vehicle: water) was 0 of 6.

For `CCCC(=O)Nc1ccn(C2OC(COC(=O)CCC)C(OC(=O)CCC)C2OC(=O)CCC)c(=O)n1` (stereo unspecified), the T/C [6] was 131 % of control.

`O=C(c1ccccc1)N1CC1` was tested, and the survivor count [3] was 6 of 6, the T/C [4] was 126 % of control and the survivor count (dose: 100.0 mg/kg/injection, schedule: Q01DX009 (ip), vehicle: water) was 6 of 6. The survivor count (dose: 200.0 mg/kg/injection, schedule: Q01DX009 (ip), vehicle: water) was 5 of 6.

`O=[N+]([O-])c1ccc(N=Nc2c(Cl)cc(O)cc2Cl)cc1` was tested, and the survivor count (dose: 25.0 mg/kg/injection, schedule: Q01DX009 (ip), vehicle: saline with Tween-80) was 5 of 6, the T/C [8] was 135 % of control and the survivor count [5] was 6 of 6. For the same molecule, the survivor count (dose: 100.0 mg/kg/injection, schedule: Q01DX009 (ip), vehicle: saline with Tween-80) was 5 of 6, the survivor count [9] was 0 of 6 and the survivor count (dose: 400.0 mg/kg/injection, schedule: Q01DX009 (ip), vehicle: saline with Tween-80) was 0 of 6.

With `FC(F)(F)c1cc(CN(CCCl)CCCl)cc(C(F)(F)F)c1` the T/C (dose: 25.0 mg/kg/injection, schedule: Q01DX009 (ip), vehicle: other) was 149 % of control, the T/C [8] was 129 and 149 % of control and the survivor count (dose: 100.0 mg/kg/injection, schedule: Q01DX009 (ip), vehicle: other) was 5 of 6.

In the case of `CCN(CCO)CCNc1ccc(C)c2sc3ccccc3c(=O)c12`, the T/C [5] is reported as 145 % of control and the T/C (dose: 150.0 mg/kg/injection, schedule: Q04DX003 (ip), vehicle: saline with Tween-80) is reported as 146 % of control.

`O=NN(CCF)C(=O)NC1CCCCC1` was tested, and the T/C (dose: 8.0 mg/kg/injection, schedule: Q04DX003 (ip), vehicle: saline with Tween-80) was 135 % of control.

`Cc1cccc(NC(=O)CCc2ccc(N3C(N)=NC(N)=NC3(C)C)cc2)c1` was tested, and the survivor count [9] was 3 of 6 and the T/C (dose: 300.0 mg/kg/injection, schedule: Q01DX009 (ip), vehicle: saline with Tween-80) was 131 % of control [5 of 6 alive].

With `Cc1c2oc3c(C)ccc(C(=O)NC4C(=O)NC(C(C)C)C(=O)N5CCCC5C(=O)N(C)CC(=O)N(C)C(C(C)C)C(=O)OC4C)c3nc-2c(C(=O)NC2C(=O)NC(C(C)C)C(=O)N3CCCC3C(=O)N(C)CC(=O)N(C)C(C(C)C)C(=O)OC2C)c(NCCCO)c1=O` (stereo unspecified) the T/C (dose: 1.6 mg/kg/injection, schedule: Q01DX001 (ip), vehicle: saline + alcohol) was 149 % of control and the T/C (dose: 12.8 mg/kg/injection, schedule: Q01DX001 (ip), vehicle: saline + alcohol) was 132 % of control [7 of 8 alive].

With `Nc1nc(SCc2ccccc2Cl)c2ncn(C3OC(CO)C(O)C3O)c2n1` (stereo unspecified) the survivor count [7] was 5 of 6.

In the case of `COc1cc(N(CCCl)CCCl)ccc1C=Nc1ccccc1C(=O)O`, the survivor count (dose: 10.0 mg/kg/injection, schedule: Q01DX009 (ip), vehicle: saline) is reported as 6 of 6 and the survivor count (dose: 20.0 mg/kg/injection, schedule: Q01DX009 (ip), vehicle: saline) is reported as 6 of 6.

With `CCCCN1C/C(=C\c2ccc(Br)cc2)C(=O)/C(=C/c2ccc(Br)cc2)C1` the survivor count (dose: 25.0 mg/kg/injection, schedule: Q01DX005 (ip), vehicle: saline with Tween-80) was 6 of 6.

For `CN1CCN(c2ccc([N+](=O)[O-])c3no[n+]([O-])c23)CC1`, the T/C (dose: 5.0 mg/kg/injection, schedule: Q01DX009 (ip), vehicle: saline with Tween-80) was 149 % of control [6 of 7 alive].
